About 170 (0.05%) of roughly 340,000 compounds were called active. The inconclusive results got no clear call from the source; some entries with a clear call stand among them for comparison. Calls follow the shape of the dose curve; as a rule, active = well fitted inhibition curve with a large enough effect in the signal ratio, with a control signal flat (not every such curve was filed as active); inconclusive = small, poorly fitted or top-dose-only effect, or effect the other way, or a change in a side signal; inactive = flat fitted curve, though single readings scatter; the % refers to the signal ratio. Potencies beside an inconclusive call are fits to weak or partial responses and may not hold up.
Assay: qHTS Assay to Find Inhibitors of Chronic Active B-Cell Receptor Signaling;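 as to activity change, negative = inhibition: plate controls were basal doxycycline-induced cells for no effect and cells given 10 µM MG132 for full effect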
Conditions: ABC-DLBCL IkBa-CBG/CBR reporter, luminescence ratio (green luciferase fused to IkBa over red control in TMD8 lymphoma cells), 4 h; activity change, negative = inhibition: at 46.1 µM (top of the series)
Procedure, shortened: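 TMD8 ABC-DLBCL cells carrying doxycycline-inducible green luciferase fused to IkappaBalpha plus unfused red luciferase were exposed to compounds (up to 46 uM) for 4 hrs at 37C. Activity came from the overlap-corrected green/red luminescence ratio.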
Potency is read from the fitted curve at half-maximal effect.

Structure (SMILES)	activity change, negative = inhibition	Potency
N#Cc1c2ccc([N+](=O)[O-])cc2[n+]([O-])n1-c1ccccc1	inconclusive: 17.7%	–
COc1cc2[nH]c(C(=O)Nc3ccc(F)cc3)cc2c(OC)c1OC	inactive: -19%	–
CCCOc1ccccc1NC(=O)CC1Nc2ccccc2NC1=O (centres undefined)	inconclusive: -5.22%	–
CCOC(=O)c1sc(NC(=O)c2ccc(S(=O)(=O)N3CCCCC3)cc2)nc1-c1ccccc1	inactive: -3.82%	–
O=c1[nH]cnc2c1c(-c1ccccc1)cn2-c1ccc(Br)cc1	inactive: 4.29%	–
CCOC(=O)c1ccc(COc2nc3ccccc3nc2-c2ccccc2NC(C)=O)o1	inconclusive: 13.2%	–
CCC(CC)N1CCN(Cc2nc3ccc([N+](=O)[O-])cc3c(=O)n2-c2ccccc2F)CC1	inconclusive: 1.15%	–
O=C(Nc1ccccc1Cl)Nc1ccccc1Cl	inconclusive: -15.7%	–
c1ccc(-c2nc(N3CCN(c4ccccc4)CC3)nc(-n3ccnc3)n2)cc1	inactive: -7.7%	–
CCCCOC(=O)C1CCCC(C(=O)OCCCC)N1 (centres undefined)	inconclusive: 8.24%	–
CCC(C)(C)n1nnnc1C(c1cc2ccc(OC)cc2[nH]c1=O)N1CCN(C2CCCCC2)CC1 (centres undefined)	inactive: -5.46%	–
CN1/C(=C\C(=O)CSc2nnc(NCc3ccccc3)s2)C(C)(C)c2ccccc21	inconclusive: -6.92%	–
O=c1oc2ccccc2cc1-c1csc(NN=C2CCCCC2)n1	inactive: -9.07%	–
COc1ccc(C(=O)Nc2cc(C(=O)O)cc(C(=O)O)c2)cc1Cl	inactive: 3.19%	–
COc1ccc(CCNC(=O)C(CCC(N)=O)NS(=O)(=O)c2ccc(Cl)cc2)cc1OC (centres undefined)	inconclusive: 1.11%	–
O=C(Nc1ccc(F)cc1F)c1cc(-c2ccco2)nc2ccccc12	inactive: -0.669%	–
Cc1nc2sc(-c3ccccc3)cc2c(=O)n1/N=C/N(C)C	–	inconclusive: 35.5 µM [rising, single point]
CCOc1ccc(NC(=O)CN(C)C(=O)c2ccc3[nH]c4c(c3c2)CC(C)CC4)cc1OCC (centres undefined)	–	inconclusive: 7.31 µM [rising, partial curve]
CC(C)C(=O)NC(Nc1cc(C(F)(F)F)ccc1Cl)C(Cl)(Cl)Cl (centres undefined)	inconclusive: -12.1%	–
CCOC(=O)C1(CCCc2ccccc2)CCN(C(=O)c2cncs2)CC1	inactive: -10.7%	–
COc1cc(SC)ccc1C(=O)NCCOc1ccc(F)cc1	inconclusive: 1.57%	–
CCOc1ccc(C(=O)c2cc([N+](=O)[O-])ccc2N2CCOCC2)cc1	–	inconclusive: 0.461 µM [falling, full curve]
COc1ccc(-c2noc(N3CCC(C(=O)Nc4ccc(OC)c(OC)c4)CC3)n2)cc1	inconclusive: 10%	–
O=C(COC(=O)c1cc(Cl)ccc1O)NNC(=O)c1ccc([N+](=O)[O-])cc1	inconclusive: 7.85%	–

A second format for 7 compounds above.
Structure (SMILES) | activity change, negative = inhibition | Potency
CCOC(=O)c1sc(NC(=O)c2ccc(S(=O)(=O)N3CCCCC3)cc2)nc1-c1ccccc1 | inactive: -3.82% | –
O=c1[nH]cnc2c1c(-c1ccccc1)cn2-c1ccc(Br)cc1 | inactive: 4.29% | –
CCC(CC)N1CCN(Cc2nc3ccc([N+](=O)[O-])cc3c(=O)n2-c2ccccc2F)CC1 | inconclusive: 1.15% | –
CCCCOC(=O)C1CCCC(C(=O)OCCCC)N1 (centres undefined) | inconclusive: 8.24% | –
O=c1oc2ccccc2cc1-c1csc(NN=C2CCCCC2)n1 | inactive: -9.07% | –
Cc1nc2sc(-c3ccccc3)cc2c(=O)n1/N=C/N(C)C | – | inconclusive: 35.5 µM [rising, single point]
COc1cc(SC)ccc1C(=O)NCCOc1ccc(F)cc1 | inconclusive: 1.57% | –
